In the M2OR odorant receptor database:
The other results are listed elsewhere or left out. Calls are pooled over several reports, among them a noisy single-well screen.

Legend:
Details in all cases: stereoisomer not certain
O52I2 = system: T1, O52I2
T1 sequence (whole entry): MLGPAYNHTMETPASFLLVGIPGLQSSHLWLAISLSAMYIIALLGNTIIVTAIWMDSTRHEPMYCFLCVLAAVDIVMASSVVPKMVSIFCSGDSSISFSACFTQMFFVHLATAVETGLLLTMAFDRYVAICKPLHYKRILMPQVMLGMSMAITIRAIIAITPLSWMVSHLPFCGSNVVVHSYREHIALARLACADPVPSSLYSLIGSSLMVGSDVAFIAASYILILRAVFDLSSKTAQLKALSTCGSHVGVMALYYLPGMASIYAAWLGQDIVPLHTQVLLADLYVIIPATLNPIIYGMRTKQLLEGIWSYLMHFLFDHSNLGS
Procedure, shortened: (§1)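 Each entry records the cell line, G-protein, co-transfected protein and tags used. Methods varied with the source, often transient luciferase assays in mammalian cell lines. A receptor–molecule pair is called responsive (active) if the original authors judged its signal statistically different from baseline and non-responsive (inactive) otherwise.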

O52J3 = system: T2, O52J3
T2 sequence (whole entry): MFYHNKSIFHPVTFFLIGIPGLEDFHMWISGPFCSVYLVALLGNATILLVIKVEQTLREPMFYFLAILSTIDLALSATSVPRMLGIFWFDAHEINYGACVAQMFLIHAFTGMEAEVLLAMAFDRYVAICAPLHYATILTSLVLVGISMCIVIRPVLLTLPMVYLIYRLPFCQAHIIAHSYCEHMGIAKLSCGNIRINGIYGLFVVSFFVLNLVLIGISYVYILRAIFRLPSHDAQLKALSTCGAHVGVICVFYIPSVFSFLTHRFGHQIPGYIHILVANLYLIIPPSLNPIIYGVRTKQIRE
Procedure, shortened: as §1

O52L1 = system: T3, O52L1
T3 sequence (whole entry): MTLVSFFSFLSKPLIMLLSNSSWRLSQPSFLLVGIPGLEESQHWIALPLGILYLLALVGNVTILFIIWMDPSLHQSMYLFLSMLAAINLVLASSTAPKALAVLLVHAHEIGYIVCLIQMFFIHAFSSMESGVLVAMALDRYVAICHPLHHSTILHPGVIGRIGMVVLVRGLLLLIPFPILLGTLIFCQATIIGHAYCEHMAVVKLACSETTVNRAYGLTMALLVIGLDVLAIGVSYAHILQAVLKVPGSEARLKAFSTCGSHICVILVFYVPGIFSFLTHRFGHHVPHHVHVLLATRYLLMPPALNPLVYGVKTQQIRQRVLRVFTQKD
Procedure, shortened: as §1

O52L2 = system: T4, O52L2
T4 sequence (whole entry): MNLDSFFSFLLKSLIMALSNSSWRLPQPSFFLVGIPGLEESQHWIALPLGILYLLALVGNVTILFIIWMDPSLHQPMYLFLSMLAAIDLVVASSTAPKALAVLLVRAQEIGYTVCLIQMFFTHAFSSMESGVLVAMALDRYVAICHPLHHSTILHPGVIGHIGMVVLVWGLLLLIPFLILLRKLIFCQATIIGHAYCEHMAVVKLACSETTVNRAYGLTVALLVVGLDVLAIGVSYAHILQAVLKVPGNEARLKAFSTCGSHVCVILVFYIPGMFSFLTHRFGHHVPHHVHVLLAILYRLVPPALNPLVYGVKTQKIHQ
Procedure, shortened: as §1

O52M1 = system: T5, O52M1
T5 sequence (whole entry): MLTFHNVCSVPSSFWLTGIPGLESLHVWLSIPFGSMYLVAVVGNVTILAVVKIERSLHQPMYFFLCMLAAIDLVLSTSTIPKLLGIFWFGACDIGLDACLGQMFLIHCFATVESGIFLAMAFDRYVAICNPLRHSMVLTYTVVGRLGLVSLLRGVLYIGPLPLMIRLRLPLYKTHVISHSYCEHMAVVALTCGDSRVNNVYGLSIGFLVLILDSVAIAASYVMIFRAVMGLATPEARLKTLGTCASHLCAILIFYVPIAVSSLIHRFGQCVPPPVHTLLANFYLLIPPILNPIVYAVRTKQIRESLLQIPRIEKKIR
Procedure, shortened: as §1

O52N1 = system: T6, O52N1
T6 sequence (whole entry): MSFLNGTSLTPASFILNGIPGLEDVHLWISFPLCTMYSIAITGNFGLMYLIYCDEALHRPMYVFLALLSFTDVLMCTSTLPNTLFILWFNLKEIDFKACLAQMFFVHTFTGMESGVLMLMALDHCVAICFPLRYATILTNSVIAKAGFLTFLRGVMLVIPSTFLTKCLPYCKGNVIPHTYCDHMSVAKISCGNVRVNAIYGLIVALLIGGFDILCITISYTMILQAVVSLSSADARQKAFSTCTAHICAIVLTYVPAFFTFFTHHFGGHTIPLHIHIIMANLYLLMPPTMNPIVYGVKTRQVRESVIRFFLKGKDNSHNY
Procedure, shortened: as §1

O52N2 = system: T7, O52N2
T7 sequence (whole entry): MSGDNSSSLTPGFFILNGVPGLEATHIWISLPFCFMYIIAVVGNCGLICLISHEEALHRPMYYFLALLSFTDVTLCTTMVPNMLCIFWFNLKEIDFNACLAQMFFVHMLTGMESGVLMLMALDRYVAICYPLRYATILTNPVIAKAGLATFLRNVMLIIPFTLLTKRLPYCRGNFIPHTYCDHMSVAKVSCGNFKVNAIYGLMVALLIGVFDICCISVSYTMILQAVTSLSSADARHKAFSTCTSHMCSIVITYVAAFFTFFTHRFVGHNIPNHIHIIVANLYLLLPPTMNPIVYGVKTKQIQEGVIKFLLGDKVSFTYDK
Procedure, shortened: as §1

O52N4 = system: T8, O52N4
T8 sequence (whole entry): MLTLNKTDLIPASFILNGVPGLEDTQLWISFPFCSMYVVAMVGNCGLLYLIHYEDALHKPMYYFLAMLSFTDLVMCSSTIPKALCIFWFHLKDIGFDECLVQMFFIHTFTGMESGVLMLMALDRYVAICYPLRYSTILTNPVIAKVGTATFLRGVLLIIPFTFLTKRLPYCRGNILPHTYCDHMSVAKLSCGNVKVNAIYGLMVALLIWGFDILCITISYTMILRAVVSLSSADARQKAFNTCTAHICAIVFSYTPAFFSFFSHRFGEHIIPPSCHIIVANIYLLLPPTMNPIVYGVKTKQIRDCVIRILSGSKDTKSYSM
Procedure, shortened: as §1

O52P1 = system: T9, O52P1
T9 sequence (whole entry): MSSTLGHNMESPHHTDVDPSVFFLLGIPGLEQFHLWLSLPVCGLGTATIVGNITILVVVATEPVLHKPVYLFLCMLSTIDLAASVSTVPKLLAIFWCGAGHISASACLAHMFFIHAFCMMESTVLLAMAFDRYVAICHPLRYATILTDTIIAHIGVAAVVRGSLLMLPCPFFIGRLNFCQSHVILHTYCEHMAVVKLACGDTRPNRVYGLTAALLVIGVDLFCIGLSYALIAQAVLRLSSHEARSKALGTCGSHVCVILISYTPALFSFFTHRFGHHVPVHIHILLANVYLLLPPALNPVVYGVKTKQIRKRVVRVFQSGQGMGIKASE
Procedure, shortened: as §1

Row | Compound | odorant receptor agonist call (O52I2) | odorant receptor agonist call (O52J3) | odorant receptor agonist call (O52L1) | odorant receptor agonist call (O52L2) | odorant receptor agonist call (O52M1) | odorant receptor agonist call (O52N1) | odorant receptor agonist call (O52N2) | odorant receptor agonist call (O52N4) | odorant receptor agonist call (O52P1)
1 | C=CCSCC=C | inactive | inactive | inactive | inactive | inactive | inactive | inactive | inactive | inactive
2 | C=CC(C)(O)CCC=C(C)C (centres undefined) | inactive | inactive | inactive | inactive | inactive | inactive | inactive | inactive | inactive
3 | CC(=O)c1ccccc1 | inactive | – | – | – | inactive | inactive | – | – | inactive
4 | O=C1CCCCCCCCCCCC(=O)OCCO1 | inactive | inactive | inactive | inactive | inactive | inactive | active | inactive | inactive
5 | CCCC(=O)O | inactive | inactive | inactive | inactive | inactive | inactive | inactive | inactive | inactive
6 | O=C1CCCCC1 | inactive | – | – | – | inactive | inactive | – | – | inactive
7 | C=CCc1ccc(OC)c(OC)c1 | inactive | inactive | inactive | inactive | inactive | inactive | inactive | active | inactive
8 | CCCCCOC(C)=O | inactive | – | – | – | inactive | inactive | inactive | inactive | inactive
9 | CC(C)(C)c1ccc(CCC=O)cc1 | inactive | inactive | inactive | inactive | inactive | inactive | inactive | inactive | inactive
10 | COC(=O)c1ccccc1 | inactive | – | – | – | inactive | inactive | – | – | inactive
11 | CCCCCC(C)=O | inactive | – | – | inactive | inactive | inactive | – | – | inactive
12 | CC(=O)OCC=C(C)CCC=C(C)C | inactive | inactive | inactive | inactive | inactive | inactive | active | inactive | inactive
13 | CCCCCCCOC(C)=O | inactive | inactive | inactive | inactive | inactive | inactive | inactive | inactive | inactive
14 | CC1=NC(C)SC1C (centres undefined) | inactive | – | active | – | inactive | inactive | – | – | inactive
15 | CC1CCC(C(C)C)C(O)C1 (centres undefined) | active | inactive | inactive | inactive | inactive | inactive | inactive | inactive | inactive

Shown comma-delimited: entries from further up
Row,Compound,odorant receptor agonist call (O52I2),odorant receptor agonist call (O52J3),odorant receptor agonist call (O52L1),odorant receptor agonist call (O52L2),odorant receptor agonist call (O52M1),odorant receptor agonist call (O52N1),odorant receptor agonist call (O52N2),odorant receptor agonist call (O52N4),odorant receptor agonist call (O52P1)
11,CCCCCC(C)=O,inactive,–,–,inactive,inactive,inactive,–,–,inactive
14,CC1=NC(C)SC1C (centres undefined),inactive,–,active,–,inactive,inactive,–,–,inactive
